Reference: article PMC3961392
Results are given in words; binding and its absence hold for the method and conditions named. Some entries that bind do so weakly or less than the wild type.

The chains behind the UniProt entries cited, without tags or fusion partners. Where a name states a change or a piece, a line headed by the entry shows the natural chain unless it says otherwise. A line that says so, or that is headed by a name, gives the form on record, which may keep a tag or linker.
APOBEC3G NPM mutant (Q9HC16, form named): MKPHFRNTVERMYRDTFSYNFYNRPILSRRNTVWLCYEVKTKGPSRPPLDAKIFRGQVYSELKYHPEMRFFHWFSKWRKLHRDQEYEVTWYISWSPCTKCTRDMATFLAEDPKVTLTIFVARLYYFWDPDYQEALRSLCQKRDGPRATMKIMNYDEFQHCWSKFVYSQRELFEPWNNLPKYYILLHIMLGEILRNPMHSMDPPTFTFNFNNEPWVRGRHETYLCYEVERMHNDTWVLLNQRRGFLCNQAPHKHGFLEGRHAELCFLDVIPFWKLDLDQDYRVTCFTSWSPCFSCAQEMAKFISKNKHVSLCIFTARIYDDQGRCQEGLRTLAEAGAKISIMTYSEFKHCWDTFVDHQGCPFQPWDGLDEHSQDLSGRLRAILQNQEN

Target: APOBEC3G NPM mutant (human) (UniProt Q9HC16)
Experiment: SEC; data not shown; oligomerization state of the mutant enzymes, method as told for the A3 enzymes (Superdex 200, 50 mM Tris pH 7.5, 200 mM NaCl); both purified

- binding: binds weakly
Substance: APOBEC3G NPM mutant (from UniProt Q9HC16 1-384) (enzyme)
